Measurements published in US11708283B2, “Metal-chelating compositions and their use in methods of removing or inhibiting barium scale” (CORNELL UNIVERSITY, priority 2018, dated 2023).
Some results were stated once for a whole list of compounds, not compound by compound. At least one compound was matched to its structure with a doubt left.

Assay: Thermodynamic stability constants of Ba^2+ complexes by pH-potentiometry
Type: binding
Details: pH 7.4
Procedure: Potentiometric measurements were carried out using a titrator equipped with a combination electrode and an exchange unit with an automatic burette (10 mL). The titration vessel was fitted with a removable glass cell (˜70 mL) and was thermostated at 25° C. using a circulating water bath. CO2 was excluded from the vessel prior to and during the titrations using a small positive pressure of Ar that was passed through a solution of 30 wt % KOH. […] Hydrochloric acid (0.1 M) was standardized against freshly prepared KOH. […]
ICP standards of calcium, strontium, and barium in dilute HNO3 were employed in the titrations. […] Stability constants were measured for the alkaline earth complexes of macropa^2− and macropaquin^2− by adding standardized KOH to a solution (20 mL) containing ligand (0.02 mmol), metal (0.02 mmol), 1 M KCl (1.9 mmol), and a portion of 0.1 M HCl sufficient to bring the total acid content (HCl+HNO3) to 0.1 mmol. […] Using the protonation constants measured for each ligand, the stability constants (Equations 2-4, below) were calculated from the average of at least 3 independent titrations using appropriate software. […]
The alkaline earth stability constants for macroquin-SO3^4− were determined using a system in which each ligand titration was paired with a ligand-metal titration. […] Stability constants were calculated as described above. […]

O=C(O)CN1CCN(CC(=O)O)CCN(CC(=O)O)CCN(CC(=O)O)CC1 [DOTA, reference compound]
selectivity for Ba^2+ over Ca^2+ (ratio of pM values): < 1 fold
selectivity for Ba^2+ over Sr^2+ (ratio of pM values): < 1 fold
